Laboratory results as given in paper PMC4890852.
No constants are given. Whether binding was seen depends on the method and setting. Binding seen in cells or lysates may run through a third protein.

Amino acid sequences for entries named in this document (tags omitted).
UniProt Q9UNE7: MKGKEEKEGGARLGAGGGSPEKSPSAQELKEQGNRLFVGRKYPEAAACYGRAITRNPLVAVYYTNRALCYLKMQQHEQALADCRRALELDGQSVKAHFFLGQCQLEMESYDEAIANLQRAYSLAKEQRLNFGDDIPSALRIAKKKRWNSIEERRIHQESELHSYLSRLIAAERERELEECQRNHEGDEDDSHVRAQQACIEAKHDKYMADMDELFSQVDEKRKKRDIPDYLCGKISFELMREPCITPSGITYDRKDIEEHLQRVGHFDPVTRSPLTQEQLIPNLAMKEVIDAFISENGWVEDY

Biological target: HA-NMNAT2 (human nicotinamide mononucleotide adenylyl transferase 2, wild type) (human) (UniProt Q9BZQ4)
Test: co-IP; HA-tagged NMNAT2 (WT or variants) immunoprecipitated from soluble lysates of the doxycycline-induced hTau40 HEK293 stable cell line, 48 h after transfection; blots for HSP90, HSP70, HOP, CHIP

Substance: C-terminus of HSC70 Interacting Protein (CHIP), endogenous in HEK293-tau cells (from UniProt Q9UNE7 1-303)
- binding: no binding

Substance: HOP, endogenous in HEK293-tau cells (from UniProt P31948 1-543)
- binding: no binding
